From paper PMC6536502 come the findings set out here.

For some assays here: No signal at the amounts used counts as a negative. For some assays here: A weaker result is weaker than the reference pair of the same experiment. For some assays here: Construct, isoform or probe ends are uncertain for at least one entry.

Series [1] concerns the target AimR-V129C C71S,C107S,C213S,C275S,C304S,C347S,V129C (Bacillus phage SPbeta) (UniProt O64094). The series is described as follows: smFRET competition. The note with it: 1 uM arbitrium peptide GMPRGA + 1 uM DNA, high-FRET (DNA-binding) species ~6%; EMSA: 25 mM Tris-HCl pH 8.0, 150 mM NaCl, 5 mM MgCl2, 5 mM DTT, 0.1 mg/ml BSA, 10% glycerol, 50 ug/ml salmon sperm DNA, 4 C, 15 min; recombinant protein; residues 1-386.

Series [2] has as its target AimR K79D (Bacillus phage SPbeta) (UniProt O64094). The series is described as follows: EMSA. The note with it: EMSA: 25 mM Tris-HCl pH 8.0, 150 mM NaCl, 5 mM MgCl2, 5 mM DTT, 0.1 mg/ml BSA, 10% glycerol, 50 ug/ml salmon sperm DNA, 4 C, 15 min; recombinant protein; residues 1-386; protein details: 6xHis removed by drICE.
The target in series [3] is AimR K43D (Bacillus phage SPbeta) (UniProt O64094). The series is described as follows: EMSA. The note with it: EMSA: 25 mM Tris-HCl pH 8.0, 150 mM NaCl, 5 mM MgCl2, 5 mM DTT, 0.1 mg/ml BSA, 10% glycerol, 50 ug/ml salmon sperm DNA, 4 C, 15 min; recombinant protein; residues 1-386; protein details: 6xHis removed by drICE.
In series [4] the target is AimR K145D (Bacillus phage SPbeta) (UniProt O64094). In words: EMSA. The note with it: EMSA: 25 mM Tris-HCl pH 8.0, 150 mM NaCl, 5 mM MgCl2, 5 mM DTT, 0.1 mg/ml BSA, 10% glycerol, 50 ug/ml salmon sperm DNA, 4 C, 15 min; recombinant protein; residues 1-386; protein details: 6xHis removed by drICE.
Series [5] has as its target AimR (Bacillus phage SPbeta) (UniProt O64094). The series is described as follows: EMSA. The note with it: arbitrium peptide GMPRGA; EMSA: 25 mM Tris-HCl pH 8.0, 150 mM NaCl, 5 mM MgCl2, 5 mM DTT, 0.1 mg/ml BSA, 10% glycerol, 50 ug/ml salmon sperm DNA, 4 C, 15 min; recombinant protein; residues 1-386; protein details: C-terminal 8xHis.
In series [6] the target is AimR K29D (Bacillus phage SPbeta) (UniProt O64094). The series is described as follows: EMSA. The note with it: EMSA: 25 mM Tris-HCl pH 8.0, 150 mM NaCl, 5 mM MgCl2, 5 mM DTT, 0.1 mg/ml BSA, 10% glycerol, 50 ug/ml salmon sperm DNA, 4 C, 15 min; recombinant protein; residues 1-386; protein details: 6xHis removed by drICE.
The target in series [7] is AimR N109D (Bacillus phage SPbeta) (UniProt O64094). The series is described as follows: EMSA. The note with it: EMSA: 25 mM Tris-HCl pH 8.0, 150 mM NaCl, 5 mM MgCl2, 5 mM DTT, 0.1 mg/ml BSA, 10% glycerol, 50 ug/ml salmon sperm DNA, 4 C, 15 min; recombinant protein; residues 1-386; protein details: 6xHis removed by drICE.
Series [8] deals with AimR R82D (Bacillus phage SPbeta) (UniProt O64094). The series is described as follows: EMSA. The note with it: EMSA: 25 mM Tris-HCl pH 8.0, 150 mM NaCl, 5 mM MgCl2, 5 mM DTT, 0.1 mg/ml BSA, 10% glycerol, 50 ug/ml salmon sperm DNA, 4 C, 15 min; recombinant protein; residues 1-386; protein details: 6xHis removed by drICE.

For the sequence “ATCACTTAAATATTAGGTTTTAATAACATCTAGTGAT (double strand) [37 bp DNA]”, the binding result in series [1] is given as “binds more weakly”.
In the case of “ACTTAAATATTAGGTTTTAATAACATCTAGT (double strand) [31 bp aimX-upstream palindromic DNA]”, the binding result was “binds more weakly” in series [2]; “binds more weakly” in series [3]; “binds more weakly” in series [4]; “no binding” in series [5]; “binds more weakly” in series [6]; “binds more weakly” in series [7]. In addition, the binding result in series [8] was “binds more weakly”.
